Source: the supplement of paper PMC4604168 (melanoma cell lines)
Some of the results follow. Repeats are few or missing, and single values can be far off.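 Imaging used 1,536-well plates; nuclei positive for cleaved PARP by antibody were divided by total DNA-stained nuclei to yield the apoptosis fraction. Doses for screening kept most cells viable, and cell lines differ markedly in resting and induced cleaved-PARP levels.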

Tests used:
Assay in all cases: cleaved PARP positive nuclei fraction relative to DMSO control; melanoma cells; higher = more apoptosis
Conditions in all cases: library dose: low library concentration; 72 h
[1] = test system: CBRC034 (line from a melanoma biopsy)
[2] = test system: COLO792
[3] = test system: COLO800
[4] = test system: COLO829
[5] = test system: G361
[6] = test system: IPC-298
[7] = test system: IST-MEL1
[8] = test system: LB2518-MEL
[9] = test system: LOXIMVI

| Compound | cleaved PARP positive nuclei fraction [1] [%] | cleaved PARP positive nuclei fraction [2] [%] | cleaved PARP positive nuclei fraction [3] [%] | cleaved PARP positive nuclei fraction [4] [%] | cleaved PARP positive nuclei fraction [5] [%] | cleaved PARP positive nuclei fraction [6] [%] | cleaved PARP positive nuclei fraction [7] [%] | cleaved PARP positive nuclei fraction [8] [%] | cleaved PARP positive nuclei fraction [9] [%] |
| --- | --- | --- | --- | --- | --- | --- | --- | --- | --- |
| Cn1c(Nc2ccc(C(F)(F)F)cc2)nc2cc(Oc3ccnc(-c4ncc(C(F)(F)F)[nH]4)c3)ccc21 + C/C(O)=C(\C#N)C(=O)Nc1cc(Br)ccc1Br [LFM-A13] (first compound 0.08 µM, partner dose 2 µM) | 117 | 865 | 102 | 72.5 | 348 | 93.5 | 41.9 | 152 | 121 |
| O=C(Nc1cccc(Cl)c1)Nc1ncc(CCNc2ncnc3ccsc23)s1 + Cc1cc(SCc2sc(-c3ccc(C(F)(F)F)c(F)c3)nc2C)ccc1OCC(=O)O [GW0742] (first compound 0.0008 µM, partner dose 2 µM) | 297 | 100 | 74.8 | 67.4 | 52.3 | 158 | 65.4 | 115 | 58.6 |
| O=C(O)C(=O)Nc1sc2c(c1C(=O)O)CCNC2 + O=C(Oc1ccc([N+](=O)[O-])cc1)N1CCC(C(O)(c2ccc3c(c2)OCO3)c2ccc3c(c2)OCO3)CC1 [JZL184] (first compound 1.66667 µM, partner dose 1 µM) | 83.7 | 119 | 65.6 | 79.8 | 132 | 41.7 | 136 | 161 | 63.3 |
| Cn1cncc1[C@@](N)(c1ccc(Cl)cc1)c1ccc2c(c1)c(-c1cccc(Cl)c1)cc(=O)n2C [tipifarnib] + Cc1cc(SCc2sc(-c3ccc(C(F)(F)F)c(F)c3)nc2C)ccc1OCC(=O)O [GW0742] (first compound 0.01 µM, partner dose 2 µM) | 41.8 | 167 | 395 | 35 | 93.3 | 64.2 | 42.6 | 210 | 105 |
| C/C(O)=C(\C#N)C(=O)Nc1cc(Br)ccc1Br + O=C1NC(=O)/C(=C/c2ccc(-c3ccc(F)cc3O)o2)S1 [AS252424] (first compound 2 µM, partner dose 1 µM) | 76.2 | 73.3 | 143 | 89.2 | 62.1 | 36.4 | 23.1 | 83.8 | 30.4 |
| C#Cc1cccc(Nc2ncnc3cc(OCCOC)c(OCCOC)cc23)c1 [erlotinib] + O=C(Oc1ccc([N+](=O)[O-])cc1)N1CCC(C(O)(c2ccc3c(c2)OCO3)c2ccc3c(c2)OCO3)CC1 [JZL184] (first compound 0.8 µM, partner dose 1 µM) | 57.1 | 234 | 145 | 92.2 | 142 | 68.4 | 198 | 82.6 | 45.4 |
| Oc1cc(-c2nc(-c3ccccc3)[nH]c2-c2ccncc2)ccc1Cl + O=C(Oc1ccc([N+](=O)[O-])cc1)N1CCC(C(O)(c2ccc3c(c2)OCO3)c2ccc3c(c2)OCO3)CC1 [JZL184] (first compound 0.2 µM, partner dose 1 µM) | 51.7 | 69.8 | 77.4 | 219 | 159 | 250 | 70.1 | 87.2 | 112 |
| CN(NC(=O)CC(=O)NN(C)C(=S)c1ccccc1)C(=S)c1ccccc1 + Cc1cc(SCc2sc(-c3ccc(C(F)(F)F)c(F)c3)nc2C)ccc1OCC(=O)O [GW0742] (first compound 0.006 µM, partner dose 2 µM) | 180 | 159 | 27.7 | 125 | 125 | 49.2 | 62.7 | 76.8 | 726 |
| Cc1cc(N2CCOCC2)cc2[nH]c(-c3c(NC[C@@H](O)c4cccc(Cl)c4)cc[nH]c3=O)nc12 + O=C(Oc1ccc([N+](=O)[O-])cc1)N1CCC(C(O)(c2ccc3c(c2)OCO3)c2ccc3c(c2)OCO3)CC1 [JZL184] (first compound 0.2 µM, partner dose 1 µM) | 97.5 | 247 | 190 | 116 | 98.3 | 85.2 | 44.8 | 173 | 84.7 |
| Oc1nc(-c2ccc(C(F)(F)F)cc2)nc2c1CSCC2 + O=C(Oc1ccc([N+](=O)[O-])cc1)N1CCC(C(O)(c2ccc3c(c2)OCO3)c2ccc3c(c2)OCO3)CC1 [JZL184] (first compound 2 µM, partner dose 1 µM) | 48.6 | 99.6 | 90.5 | 161 | 79.1 | 55.2 | 85.6 | 172 | 36.8 |
| CO[C@@H]1[C@H](N(C)C(=O)c2ccccc2)C[C@H]2O[C@]1(C)n1c3ccccc3c3c4c(c5c6ccccc6n2c5c31)C(=O)NC4 [Midostaurin] + O=C(Oc1ccc([N+](=O)[O-])cc1)N1CCC(C(O)(c2ccc3c(c2)OCO3)c2ccc3c(c2)OCO3)CC1 [JZL184] (first compound 0.08 µM, partner dose 1 µM) | 99.3 | 60.1 | 81.8 | 128 | 51.2 | 114 | 86.3 | 77.7 | 84.6 |
